Reference: article PMC9262611
Results are given in words; binding and its absence hold for the method and conditions named. Binding seen in cells or lysates may run through a third protein. A yes stands for co-enrichment or nearness to the bait. Other partners may have been found.

B1: FLN1, endogenous (protein, UniProt Q9M394 39-471)
chain: ASINGSGITNGAAAETTSKPSRKGRKKKQTSTVIEKDNTETDPELNPELADYDDGIEFPYDDPPLVCCFGAVQKEFVPVVRVHDNPMHPDMYSQWKMLQWDPPEFGRAPGGPPSNVAISHVRLGGRAAFMGKVGEDDFGDELVLMMNQERVQTRAVKFDENSKTACTRVKIKFKDGKMMAETVKEPPEDSLFASELNLAVLKEARIFHFNSEVLTSPTMQSTLFTAIQWSKKFGGLIFFDLNLPLPLWRSRNETRKLIKKAWNEANIIEVSQQELEFLLDEDYYERRRNYTPQYFAEDFDQTKNRRDYYHYTPEEIKSLWHDKLKLLVVTDGTLRLHYYTPTFDGVVIGTEDVLITPFTCDRTGSGDAVVAGIMRKLTTCPEMFEDQDVMERQLRFAVAAGIIAQWTIGAVRGFPTESATQNLKEQVYVPSMW
B2: pTAC6, endogenous (protein, UniProt Q9XI19 60-328)
chain: ADGGGADEYDMDDEEVEEVDNKKDYDVEYDPLAAAIAAAGGGGDGDIAFVQSKSFISTQGWDSDMVVDYRINEDEFHKLSLMDCDFFIRKPPDPDNDVYDFREMYVTPPDTDIYSIPRVLAPMPQKYIRCAMSDYGCYNVTEPPIDAPRDPLYKSEREISKVFLTKHYRNRRTNDPEFVLDLEEIYVIDSKTKSITRARVLVTVPGGRKRDRKDDLLVIRDNGTSFKIIHVGERDDPTTVIEREEWTKTREDMEKHLRKLRDFSVSNWF
B3: FLN2, endogenous (protein, UniProt F4I0K2 45-614)
chain: AAGRRKLSESAPLEEEGNDGNGAVVGKKPSKSVKRTTKKKVVVKDEPLEEISEFLVDNDDVLDKESIVSALKPKKTRTRKKAAAASSDVEEVKTEKKVRRKRTVKKDKDVEDDLATIMDAEVSDVEEALAVESTDTESEEEEIDLSKHEGEDISHTYGWPPLVCCFGSAQHAFVPSGRPANRLLDYELHERMRDAKWAPEKYIRAPGGCAGGVAIALASLGGKVAFMGKLGADDYGQAMLYYLNVCKVQTRSVKIDGKRVTACSTMKISKRGRLKSTCIKPCAEDSLSKSEINVDVLKEAKMFYFSTHSLLDKKMMSTTIQAIKISKQLGNVIFYDLNLPLPLWHSSEETKSFIQEVWNLADVIEITKQELEFLCGIEPTEEFDTENNDISKFVHYPPETVEQLWHENLKVLFVTNGTSKIHYYTKEHNGAVSGMEDVPITPFTRDMSASGDGIVAGLIRMLTVQPDLMNNKGYLERTARYAIECGIIDQWLLAQTRGYPPKDDMEEEEDDEEEDEVESDPNGIRSITEKEYRTSKPYDEPDGPYVMKPVEEREYKKLELVGSMFEDGSL
B4: FSD2 (PAP9), endogenous (protein, UniProt Q9LU64 47-305)
chain: GVITAGFELKPPPYPLDALEPHMSRETLDYHWGKHHKTYVENLNKQILGTDLDALSLEEVVLLSYNKGNMLPAFNNAAQAWNHEFFWESIQPGGGGKPTGELLRLIERDFGSFEEFLERFKSAAASNFGSGWTWLAYKANRLDVANAVNPLPKEEDKKLVIVKTPNAVNPLVWDYSPLLTIDTWEHAYYLDFENRRAEYINTFMEKLVSWETVSTRLESAIARAVQREQEGTETEDEENPDDEVPEVYLDSDIDVSEVD
B5: TRX z, endogenous (protein, UniProt Q9M7X9 82-183)
chain: AQELQELVKGDRKVPLIVDFYATWCGPCILMAQELEMLAVEYESNAIIVKVDTDDEYEFARDMQVRGLPTLFFISPDPSKDAIRTEGLIPLQMMHDIIDNEM
B6: FSD3, endogenous (protein, UniProt Q9FMX0 42-263)
chain: GGLKVEAYYGLKTPPYPLDALEPYMSRRTLEVHWGKHHRGYVDNLNKQLGKDDRLYGYTMEELIKATYNNGNPLPEFNNAAQVYNHDFFWESMQPGGGDTPQKGVLEQIDKDFGSFTNFREKFTNAALTQFGSGWVWLVLKREERRLEVVKTSNAINPLVWDDIPIICVDVWEHSYYLDYKNDRAKYINTFLNHLVSWNAAMSRMARAEAFVNLGEPNIPIA
B7: pTAC2, endogenous (protein, UniProt Q9S7Q2 67-862)
chain: VEKGKYSYDVESLINKLSSLPPRGSIARCLDIFKNKLSLNDFALVFKEFAGRGDWQRSLRLFKYMQRQIWCKPNEHIYTIMISLLGREGLLDKCLEVFDEMPSQGVSRSVFSYTALINAYGRNGRYETSLELLDRMKNEKISPSILTYNTVINACARGGLDWEGLLGLFAEMRHEGIQPDIVTYNTLLSACAIRGLGDEAEMVFRTMNDGGIVPDLTTYSHLVETFGKLRRLEKVCDLLGEMASGGSLPDITSYNVLLEAYAKSGSIKEAMGVFHQMQAAGCTPNANTYSVLLNLFGQSGRYDDVRQLFLEMKSSNTDPDAATYNILIEVFGEGGYFKEVVTLFHDMVEENIEPDMETYEGIIFACGKGGLHEDARKILQYMTANDIVPSSKAYTGVIEAFGQAALYEEALVAFNTMHEVGSNPSIETFHSLLYSFARGGLVKESEAILSRLVDSGIPRNRDTFNAQIEAYKQGGKFEEAVKTYVDMEKSRCDPDERTLEAVLSVYSFARLVDECREQFEEMKASDILPSIMCYCMMLAVYGKTERWDDVNELLEEMLSNRVSNIHQVIGQMIKGDYDDDSNWQIVEYVLDKLNSEGCGLGIRFYNALLDALWWLGQKERAARVLNEATKRGLFPELFRKNKLVWSVDVHRMSEGGMYTALSVWLNDINDMLLKGDLPQLAVVVSVRGQLEKSSAARESPIAKAAFSFLQDHVSSSFSFTGWNGGRIMCQRSQLKQLLSTKEPTSEESENKNLVALANSPIFAAGTRASTSSDTNHSGNPTQRRTRTKKELAGSTA
B8: AtMurE, endogenous (protein, UniProt F4I3P9 41-772)
chain: AAGPARRNSYPNPADDDPPEAPEDSMHGVSKFQQIQRQAARARKLEEEDFEKNRNTYLSAIADVEDAAETGRDDEESGGDLFSDIDRAISMKRSEFVKQGLLKPNPPKTASLKKIGEEGNEEEGDVTDDVDELDEEEVVDLDEIDKLTGLTEISDEEDWVDEEGNTRINKKKEFGSDHQFEFDLDDFGESKARIVEPKFKMCLAELLDESKVVPISVYGDLDVEITGIQHDSRGVSAGDLFVCCLGSENFLSEADKRGAVAVVASKEIDIEDTLGCRALVIVEDTNAVLAALASSFYRHPSKNMSVIGVTGTDGKTTTTYLIKSLYEAMGVRTGMFSTVSCYIHGDNKLDTPNATMNPDAVLVQSLMAKMLHNGTESLVMEASPQELALGKCDEVDFDIAVFTNLTRENTDFRGTDEEYRDAEAKLFSRMVDPERHRKVVNIDDPNAAFFVQQGNPNVPVVTFAMENTKADVHPLKFELSLFETQVLVNTPQGILEISSGLLGRHNIYNILAAVAVGIAVGAPLEDIVRGVEEVDAVPGRCELIDEEQAFGVIVDHANTPDGLSRLLDSIRELKPRRIITVIGCEGENERGKRPLMTKIATEKSDVTMLTSDNPRNEDPLDILDDMLSGIGWTMQEYLKHGEHDYYPPLANGHRLFLHDIRRVAVRCAVAMGEEGDMVVVAGKGHEAYQLEGEKKEFYDDREECREALQYVDELHQAGIDTSEFPWRLPESH
B9: pTAC12, endogenous (protein, UniProt F4IHY7 31-527)
chain: VKCGFPLKTLHAGITSRDRSLRHCIKCKKEDGDGDVSEGSKKSEEGFEYVTVERHPYHSYMDSTSGKLEPASGARASIPGEDYWPEGTSSRVRAARAPQPAGESSSFPSYGKNPGSRRKKNRKATEENVTVETNDEVSDSEDSSEEEENDSSDGFVTYKNEFEREEEETGFELDKKLGRPHPFIDPTKKKQIEKTLTSDESWWNWRKPEKEQWSRWQRRRPDVETVFLKAMAETGQVKLYGEEPTLTETSLYRARRHLFKEERLQAERERLAKEGPMAFYSEWVKAWKRDTSREAVQKHFEETGEDENTQLIEMFSHQTDREYRIMMGTDIRIKRDPLAMRMREDQIKQIWGGDPVYPTINYIQDPNAVMDFRGPDFHEPTPNMLSYLKENGKVISREMHEALLTKEKTEQLEVPDMDDAMAQAVDIGENDDDEDDADVEKDDEKVPRNWSVLKETPELRTAKPKPKKEGRMSLDEAVDDAENLTDFLMDFEEETDP
B10: PRPS10, endogenous (protein, UniProt Q9LK61 57-191)
chain: AVPDTLDPTPEILDEPASEVPSSSSISVDADKMAPKQKIRIKLRSYWVPLIEDSCKQILDAARNTNAKTMGPVPLPTKKRIYCVLKSPHVHKDARFHFEIRTHQRMIDILYPTAQTIDSLMQLDLPAGVDVEVKL
B11: pTAC10, endogenous (protein, UniProt F4JF21 41-668)
chain: GFSSDEFPVDETFLEKFGPKDKDTEDEARRRNWIERGWAPWEEILTPEADFARKSLNEGEEVPLQSPEAIEAFKMLRPSYRKKKIKEMGITEDEWYAKQFEIRGDKPPPLETSWAGPMVLRQIPPRDWPPRGWEVDRKELEFIREAHKLMAERVWLEDLDKDLRVGEDATVDKMCLERFKVFLKQYKEWVEDNKDRLEEESYKLDQDFYPGRRKRGKDYEDGMYELPFYYPGMVCEGTVTTLHLYQGAFVDIGGVHEGWVPIKGNDWFWIRHFIKVGMHVIVEITAKRDPYRFRFPLELRFVHPNIDHMIFNKFDFPPIFHRDGDTNPDEIRRDCGRPPEPRKDPGSKPEEEGLLSDHPYVDKLWQIHVAEQMILGDYEANPAKYEGKKLSELSDDEDFDEQKDIEYGEAYYKKTKLPKVILKTSVKELDLEAALTERQHHNKLMMEAKARGEGYKIDKLRRNIEMDEYDFLHWRRSLEEREALLRDISSRQALGLPLEEPGRYKPGSFFGKDQYDPTSALYQYDYWGEPKNSEISKQERMKDAHNKSIVGKGNVWYDMSYDDAIKQTIEKRKEGSTLASQEEETESEEEEEDDDDFDDFDYSILSDESSIGYSEQQPLVNGTQVLTD
B12: pTAC14, endogenous (protein, UniProt Q84JF5 63-483)
chain: ASEESSSSELETADPDFYKIGYVRSVRAYGVEFKEGPDGFGVYASKDIEPRRRARVIMEIPLELMITIRQKHPWMFFPDIVPIGHPIFDIINSTDPEIDWDIRLACLLLFSFDRDDHFWRLYGDFLPAADECSSLLLATEEDLAELQDPDLVSTIRQQQKRILDFWEKNWHSGVPLKIKRLAEDPERFIWAVSMAQTRCISMQTRVGALVQELNMMIPYADMLNHSFEPNCFLHWRPKDRMLEVMSNAGQDIKKGEEMTINYMPGQKNNMLMERYGFSTPVNPWDAIKFSGDSRIHLNSFLSVFNIYGLPEEYYHDSELSRGDTFVDGAVIAAARTLPTWSDIDLPPIPSAERKAVKELQDECRKMLAEYPTTAEQDQKLLDSMSEARTTFATAVKYRMHRKMFIGKIIKALDIYQERLLY

Molecular target: AtNusG:MYC (AtNusG:MYC_WT transgenic lines) (Arabidopsis thaliana)
Test: affinity purification with mass spectrometry; total leaf proteins of three-week-old AtNusG:MYC_WT transgenic lines, anti-MYC beads overnight, washes with 150 mM NaCl, 0.1% Triton-X100; LC-MS/MS

Binder | binding
B1 | binds
B2 | binds
B3 | binds
B4 | binds
B5 | binds
B6 | binds
B7 | binds
B8 | binds
B9 | binds
B10 | binds
B11 | binds
B12 | binds
